Experimental data from paper PMC5152890 (PLoS ONE, 2016).
These are yes or no findings as the source states them, for the method shown. Some entries that bind do so weakly or less than the wild type.

The chains behind the UniProt entries cited, without tags or fusion partners. Where a name states a change or a piece, a line headed by the entry shows the natural chain unless it says otherwise. Residues count along the entry.
UniProt P17948, residues 132-226: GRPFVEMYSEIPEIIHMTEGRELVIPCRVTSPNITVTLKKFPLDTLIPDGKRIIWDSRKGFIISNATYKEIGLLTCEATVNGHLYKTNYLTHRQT

Key:
[1] = biological target: human VEGFR1 domain 2 (hVEGFR1d2) (human) (UniProt P17948); test: SEC; Superdex 75 HR 10/300; 160 μM hVEGFR1d2 incubated 30 min at 18°C and eluted in 25 mM Tris-HCl pH 8.1, 250 mM NaCl, 1 mM EDTA; both purified
[2] = biological target: human VEGFR1 domain 2 (hVEGFR1d2) (human) (UniProt P17948); test: SAXS; hVEGFR1d2 in solution without CoCl2, after removal of all divalent metal ions (0.25 mM EDTA, dialysis against 20 mM HEPES-NaOH pH 7.0 with Chelex 100), up to 5 mg/mL, 277 K; both purified
[3] = biological target: human VEGFR1 domain 2 (hVEGFR1d2) (human) (UniProt P17948); test: condition: only with EDTA (1.8 eq, 270 μM) added to the sample with cadmium; NMR titration; 1H-15N TROSY of 150 μM 15N-labelled hVEGFR1d2 with 270 μM CdCl2 after addition of EDTA (1.8 eq, 270 μM); 300 K; both purified

binding [2]: binds weakly
binding [3]: no binding
Substance: human VEGFR1 domain 2 (hVEGFR1d2) (from UniProt P17948-2 132-226) (domain or fragment)
binding [1]: no binding (condition: with 1 mM EDTA (160 μM hVEGFR1d2))
